Data on one molecule can be found in ChEMBL document CHEMBL3881525, “Analogs of dehydrophenylahistins and their therapeutic use” (2007).

A word on the IC50: it is the concentration that inhibits the measured activity by half.

The assay is described as follows: Antimitotic activity in human MCF7 cells assessed as mitotic index measured after 20 hrs by DAPI-staining based fluorescence microscopic analysis. Type of assay: functional, cell-based.

With `COc1cc2c(c(OC)c1OC)-c1ccc(OC)c(=O)cc1[C@@H](NC(C)=O)CC2` [COLCHICINE], the IC50 is 0.0238 µM.
